Source: PMC3215713
For at least one entry, the source does not settle the construct or the ends of the probe.

Amino acid sequences for entries named in this document (tags omitted). Residues count along the entry.
UniProt P01127, 82-190: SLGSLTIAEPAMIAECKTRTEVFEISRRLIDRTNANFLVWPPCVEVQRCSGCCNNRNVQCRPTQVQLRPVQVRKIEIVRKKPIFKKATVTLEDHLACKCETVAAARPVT

Target: PDGF-BB (platelet-derived growth factor BB) (UniProt P01127)
Assay: filter binding
Conditions: PDGF-BB and ApoE: PBS pH 7.4, 1 mM MgCl2, 0.025% Tween 20; thrombin: 50 mM Tris pH 7.5, 100 mM NaCl, 1 mM MgCl2, 5 mM KCl, 1 mM CaCl2, 0.025% Tween 20; 1 h; commercial protein; label: 5'-FAM; single-stranded DNA

How did the Kd turn out when “CACAGGCTACGGCACGTAGAGCATCACCATGATCCTGTG [Green PDGF aptamer 36t]” was run?
The Kd was 0.093 nM.
